Measurements reported in patent US4347319A, “Microbiological epoxidation process” (priority 1980, dated 1982).

Legend:
[1] = tested on: cell fractions of Methylosinus trichosporium (OB3b, NRRL B-11,196); assay type: biochemical; details: S(80); propylene-epoxidizing / methane-hydroxylating activity
Method: Cells were washed twice with 25 mM potassium phosphate buffer, pH 7.0 containing 5 mM MgCl2. Cells were suspended in the same buffer. The cell suspensions at 4° C. were disintegrated by a single passage through a French Pressure cell (15,000 lb./in.^2) and centrifuged at 5000×g. for 15 min. to remove unbroken bacteria. The supernatant solution (crude extract) was then centrifuged at 40,000×g. for 30 min., yielding particulate P(40) and soluble S(40) fractions. The S(40) fraction was subsequently centrifuged at 80,000×g. for 60 min., yielding particulate P(80) and soluble S(80) fractions. The particulate fractions [P(40) and P(80)] were suspended in 25 mM potassium phosphate buffer, pH 7.0, containing 5 mM MgCl2 and homogenized at 4° C.
The oxidation of methane and propylene by particulate [(P)40 and (P)80] fractions and soluble [S(80)] fraction was measured at 30° C. by estimating the production of methanol and propylene oxide, respectively. The reaction mixtures contained in […]: 150 mM potassium phosphate buffer, pH 7.0 containing 5 mM MgCl2 b, 0.6 ml; 10μ moles NADH, and cellular fraction.
Reaction mixtures were contained in 10 ml vials at 4° C. […]
Specific activities were expressed as μ moles of products formed per hour per mg. protein. Concentrations of protein in various fractions were determined by the method of Lowry et al., J. Biol. Chem., 193: 265-275 (1951).

[2] = tested on: purified secondary alcohol dehydrogenase from Pichia sp. NRRL Y-11,328; experiment: Substrate specificity, electron acceptor and stoichiometry of purified yeast SADH; assay type: biochemical; details: stoichiometry; for NAD^+ Reduced: isopropanol 5.7, 2-butanol 6.0 μmoles, 340 nm; for Product Formed: isopropanol 5.7 to acetone, 2-butanol 6.0 μmoles to 2-butanone, gas chromatography

Structure (SMILES) | % Distribution in Cell Fraction [1] [%] | NAD^+ Reduced [2] [µmol] | Product Formed [2] [µmol]
C=CC [Propylene] | 0 | – | –
CCC(C)O (stereo not drawn) [2-Butanol] | – | 5.9 | 5.7
C [Methane] | 0 | – | –
CC(C)O [Isopropanol] | – | 5.4 | 5.5
